# According to article doi:10.1101/2021.10.21.465262:
# By UniProt entry, the sequences of proteins in these tests, tags left out. Residues count along the entry.
# UniProt Q8K199: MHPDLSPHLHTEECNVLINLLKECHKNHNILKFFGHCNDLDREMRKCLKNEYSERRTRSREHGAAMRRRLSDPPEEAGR
# UniProt Q9Z1P6: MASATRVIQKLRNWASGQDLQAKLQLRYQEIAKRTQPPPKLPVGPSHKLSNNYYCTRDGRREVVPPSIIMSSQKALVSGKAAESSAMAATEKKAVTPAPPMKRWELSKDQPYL
# UniProt P56392, residues 22-80: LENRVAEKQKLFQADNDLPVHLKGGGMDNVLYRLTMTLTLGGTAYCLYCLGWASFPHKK
# UniProt P03921: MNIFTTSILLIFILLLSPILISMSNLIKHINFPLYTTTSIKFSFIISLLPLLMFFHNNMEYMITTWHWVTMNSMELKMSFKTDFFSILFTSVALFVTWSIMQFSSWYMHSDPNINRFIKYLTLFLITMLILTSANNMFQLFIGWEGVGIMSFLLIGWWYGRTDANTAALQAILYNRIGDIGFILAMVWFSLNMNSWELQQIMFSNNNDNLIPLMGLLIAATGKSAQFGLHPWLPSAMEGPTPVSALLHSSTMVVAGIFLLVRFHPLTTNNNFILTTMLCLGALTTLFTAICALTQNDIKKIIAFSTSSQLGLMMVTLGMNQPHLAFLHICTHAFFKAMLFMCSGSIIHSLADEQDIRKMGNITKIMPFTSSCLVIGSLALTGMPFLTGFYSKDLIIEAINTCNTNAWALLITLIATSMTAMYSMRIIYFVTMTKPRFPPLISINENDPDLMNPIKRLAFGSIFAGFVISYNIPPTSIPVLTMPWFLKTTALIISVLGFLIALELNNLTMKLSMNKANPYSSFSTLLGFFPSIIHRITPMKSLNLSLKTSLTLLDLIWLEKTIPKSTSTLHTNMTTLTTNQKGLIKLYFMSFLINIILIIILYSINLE
# UniProt P56391: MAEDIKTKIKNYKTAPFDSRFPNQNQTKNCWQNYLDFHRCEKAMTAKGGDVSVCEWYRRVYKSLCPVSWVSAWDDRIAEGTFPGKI
# UniProt P52503, residues 21-116: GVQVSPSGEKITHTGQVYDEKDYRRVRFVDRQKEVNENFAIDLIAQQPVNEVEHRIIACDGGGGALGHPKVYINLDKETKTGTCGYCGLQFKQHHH
# T1: FLAG-MTFP1 (Mitochondrial fission process 1) (UniProt Q9CRB8)
# T1 sequence: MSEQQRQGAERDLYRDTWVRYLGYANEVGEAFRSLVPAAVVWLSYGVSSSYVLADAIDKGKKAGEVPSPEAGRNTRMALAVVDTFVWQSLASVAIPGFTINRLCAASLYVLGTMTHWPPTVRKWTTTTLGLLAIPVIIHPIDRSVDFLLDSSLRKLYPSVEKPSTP
# B1: Ndufa10 (protein, UniProt Q99LC3 36-355)
# chain: LRYGLLAAILGDKTTKKLHEYSRVITVDGNICSGKNKLAKEIAQQLGMKHYPEAGIQYSSTTTGDGRPLDIEFSGSCSLEKFYDDPKSNDGNSYRLQSWLYASRLLQYADALEHLLSTGQGVVLERSIYSDFVFLEAMYNQGYIRKQCVDHYNEIKRLTLPEYLPPHAVIYIDVPVPEVQSRIQKKGDPHEMKVTSAYLQDIENAYKKTFLPKMSEMCEVLVYDSWEAEDPTKVVEDIEYLKYNKGPWLKQDDWTFHYLRMLVQDKTEVLNYTTIPVYLPEITIGAHQGSRIYNSFRELPGRKYAPGYNAEVGDKWIWLK
# B2: SCO2 (protein, UniProt Q8VCL2 42-255)
# chain: QGPGLRTRLLITALFGAGLGWAWLAARAEKEQWRQQQRTEALRQAAVGQGDFSLLDHKGQPRCKADFRGQWVLMYFGFTHCPDICPDELEKLVQVVRKLEAEPDLPLVQPVFITVDPERDDVAAMARYVQEFHPRLLGLTGSTEQVAHASRNYRVYYSAGPKDEDQDYIVDHSIAIYLLNPDGLFTDYYGRSRSAEQIVESIRRHIAAFHSVLP
# B3: ATP5L (protein, UniProt Q9CPQ8 1-103)
# chain: MAKFIRNFAEKAPSMVAAAVTYSKPRLATFWHYAKVELVPPTPAEIPTAIQSVKKIIQSAKTGSFKHLTVKEAVLNGLVATEVWMWFYIGEIIGKRGIVGYDV
# B4: USMG5 (protein, UniProt Q78IK2 1-58)
# chain: MAGAESDGQFQFTGIKKYFNSYTLTGRMNCVLATYGGIALLVLYFKLRPKKTPAVKAT
# B5: ADP/ATP translocase SLC25A4 (protein, UniProt P48962 1-298)
# chain: MGDQALSFLKDFLAGGIAAAVSKTAVAPIERVKLLLQVQHASKQISAEKQYKGIIDCVVRIPKEQGFLSFWRGNLANVIRYFPTQALNFAFKDKYKQIFLGGVDRHKQFWRYFAGNLASGGAAGATSLCFVYPLDFARTRLAADVGKGSSQREFNGLGDCLTKIFKSDGLKGLYQGFSVSVQGIIIYRAAYFGVYDTAKGMLPDPKNVHIIVSWMIAQSVTAVAGLVSYPFDTVRRRMMMQSGRKGADIMYTGTLDCWRKIAKDEGANAFFKGAWSNVLRGMGGAFVLVLYDEIKKYV
# B6: inorganic phosphate carrier SLC25A3 (protein, UniProt Q8VEM8 46-357)
# chain: AVEEYSCEFGSMKYYALCGFGGVLSCGLTHTAVVPLDLVKCRMQVDPQKYKGIFNGFSITLKEDGVRGLAKGWAPTLIGYSMQGLCKFGFYEVFKALYSNILGEENTYLWRTSLYLASSASAEFFADIALAPMEAAKVRIQTQPGYANTLREAVPKMYKEEGLNAFYKGVAPLWMRQIPYTMMKFACFERTVEALYKFVVPKPRSECTKAEQLVVTFVAGYIAGVFCAIVSHPADSVVSVLNKEKGSTASQVLQRLGFRGVWKGLFARIIMIGTLTALQWFIYDSVKVYFRLPRPPPPEMPESLKKKLGLTE
# B7: heat shock protein TRAP1 (protein, UniProt Q9CQN1 61-706)
# chain: STQAAEDKEEESLHSIISNTEAVRGSVSKHEFQAETKKLLDIVARSLYSEKEVFIRELISNASDALEKLRHKLVCEGQVLPEMEIHLQTDAKKGTITIQDTGIGMTQEELVSNLGTIARSGSKAFLEALQNQAETSSKIIGQFGVGFYSAFMVADKVEVYSRSAAPESPGYQWLSDGSGVFEIAEASGVRPGTKIIIHLKSDCKDFASESRVQDVVTKYSNFVSFPLYLNGKRINTLQAIWMMDPKDISEFQHEEFYRYIAQAYDKPRFTLHYKTDAPLNIRSIFYVPEMKPSMFDVSRELGSSVALYSRKVLIQTKAADILPKWLRFIRGVVDSEDIPLNLSRELLQESALIRKLRDVLQQRLIKFFIDQSKKDAEKYAKFFEDYGLFMREGIVTTAEQDIKEDIAKLLRYESSALPAGQLTSLPDYASRMQAGTRNIYYLCAPNRHLAEHSPYYEAMKQKHTEVLFCYEQFDELTLLHLREFDKKKLISVETDIVVDHYKEEKFEDTSPADERLSEKETEDLMAWMRNALGSRVTNVKVTFRLDTHPAMVTVLEMGAARHFLRMQQLAKTQEERAQLLQPTLEINPRHTLIKKLCQLRESEPELAQLLVDQIYENAMIAAGLVDDPRAMVGRLNDLLVKVLEKH
# B8: NDUFB4 (protein, UniProt Q9CQC7 1-129)
# chain: MSGSKYKPAPLATLPSTLDPAEYDVSPETRRAQVERLSIRARLKREYLLQYNDPKRVSHIEDPALIRWTYARSANIYPNFRPTPKNSLLGAVAGFGPLIFWYYVFKTDRDRKERLIQEGKLDRKFNISY
# Biological target: T1, FLAG-MTFP1 (Mitochondrial fission process 1)
# Test: affinity purification with mass spectrometry
row,Molecule,binding
1,CMC2 (from UniProt Q8K199 1-79),binds
2,NDUFA7 (from UniProt Q9Z1P6 1-113),binds
3,COX7A1 (from UniProt P56392 22-80),binds
4,Mtnd5 (from UniProt P03921 1-607),binds
5,COX6B1 (from UniProt P56391 1-86),binds
6,NDUFS6 (from UniProt P52503 21-116),binds
7,B1,binds
8,B2,binds
9,B3,binds
10,B4,binds
11,B5,binds
12,B6,binds
13,B7,binds
14,B8,binds

# No constants are given. Whether binding was seen depends on the method and setting. In cells and extracts the contact can be indirect. These calls come from enrichment with a bait or labelling near it, and not all partners need be listed. Sequences can lack the tags named with a protein.
